In the supplement of paper PMC10849652:
The list shows a part of the results.

Amino acid sequences for entries named in this document (tags omitted). A change or cut given only in a name is not applied to a line headed by its entry.
UniProt O60931: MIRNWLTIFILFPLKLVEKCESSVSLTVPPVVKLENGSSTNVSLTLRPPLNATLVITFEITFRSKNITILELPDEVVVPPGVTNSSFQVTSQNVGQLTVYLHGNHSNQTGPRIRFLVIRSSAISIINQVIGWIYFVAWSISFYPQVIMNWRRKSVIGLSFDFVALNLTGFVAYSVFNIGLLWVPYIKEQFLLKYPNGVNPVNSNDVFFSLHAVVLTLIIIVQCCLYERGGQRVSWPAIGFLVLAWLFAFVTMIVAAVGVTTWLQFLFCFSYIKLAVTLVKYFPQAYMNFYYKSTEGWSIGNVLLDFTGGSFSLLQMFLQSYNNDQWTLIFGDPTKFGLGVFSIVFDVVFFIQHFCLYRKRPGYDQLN
UniProt P49711: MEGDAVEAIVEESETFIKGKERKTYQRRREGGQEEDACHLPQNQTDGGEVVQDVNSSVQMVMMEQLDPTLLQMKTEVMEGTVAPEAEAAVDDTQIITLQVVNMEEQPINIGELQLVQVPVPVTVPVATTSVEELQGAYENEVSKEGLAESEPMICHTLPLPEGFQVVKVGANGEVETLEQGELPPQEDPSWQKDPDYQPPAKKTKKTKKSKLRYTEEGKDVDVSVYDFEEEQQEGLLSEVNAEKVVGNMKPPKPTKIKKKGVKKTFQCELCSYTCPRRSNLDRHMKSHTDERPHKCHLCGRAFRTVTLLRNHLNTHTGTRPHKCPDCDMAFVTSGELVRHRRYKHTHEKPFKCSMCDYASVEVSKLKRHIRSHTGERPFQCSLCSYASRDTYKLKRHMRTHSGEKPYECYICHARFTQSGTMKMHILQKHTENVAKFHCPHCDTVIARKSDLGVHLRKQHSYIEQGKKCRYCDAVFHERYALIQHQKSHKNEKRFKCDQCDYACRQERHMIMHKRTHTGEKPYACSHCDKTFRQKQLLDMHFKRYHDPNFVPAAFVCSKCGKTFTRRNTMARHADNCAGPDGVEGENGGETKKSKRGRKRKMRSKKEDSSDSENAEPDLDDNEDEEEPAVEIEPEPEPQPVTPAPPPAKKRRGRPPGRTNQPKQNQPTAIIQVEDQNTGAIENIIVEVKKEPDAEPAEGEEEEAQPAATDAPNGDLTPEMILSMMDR
UniProt Q01459: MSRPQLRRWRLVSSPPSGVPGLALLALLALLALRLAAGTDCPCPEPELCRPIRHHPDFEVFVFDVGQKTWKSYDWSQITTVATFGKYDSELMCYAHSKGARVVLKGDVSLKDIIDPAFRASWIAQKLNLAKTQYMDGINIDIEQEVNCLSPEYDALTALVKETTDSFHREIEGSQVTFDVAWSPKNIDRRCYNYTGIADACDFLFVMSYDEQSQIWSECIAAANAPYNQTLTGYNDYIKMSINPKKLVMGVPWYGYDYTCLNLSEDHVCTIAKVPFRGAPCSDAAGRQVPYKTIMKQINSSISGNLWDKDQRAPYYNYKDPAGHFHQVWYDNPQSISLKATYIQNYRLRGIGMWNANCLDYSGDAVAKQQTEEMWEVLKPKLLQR
UniProt Q70SY1: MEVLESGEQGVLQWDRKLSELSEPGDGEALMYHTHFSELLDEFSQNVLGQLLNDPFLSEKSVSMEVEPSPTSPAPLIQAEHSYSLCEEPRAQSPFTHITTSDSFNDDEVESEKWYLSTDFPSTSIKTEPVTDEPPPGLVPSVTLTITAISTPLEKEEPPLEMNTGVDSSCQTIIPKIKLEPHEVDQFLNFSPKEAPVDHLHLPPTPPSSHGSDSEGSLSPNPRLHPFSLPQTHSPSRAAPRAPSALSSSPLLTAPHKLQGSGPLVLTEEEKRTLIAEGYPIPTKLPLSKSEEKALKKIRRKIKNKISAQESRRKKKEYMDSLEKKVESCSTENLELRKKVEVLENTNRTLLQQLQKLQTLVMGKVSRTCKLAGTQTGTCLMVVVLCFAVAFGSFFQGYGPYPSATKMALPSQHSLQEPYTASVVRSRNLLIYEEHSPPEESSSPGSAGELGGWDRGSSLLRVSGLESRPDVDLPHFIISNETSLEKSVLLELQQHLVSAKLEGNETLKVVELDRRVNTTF
UniProt Q2VPK5: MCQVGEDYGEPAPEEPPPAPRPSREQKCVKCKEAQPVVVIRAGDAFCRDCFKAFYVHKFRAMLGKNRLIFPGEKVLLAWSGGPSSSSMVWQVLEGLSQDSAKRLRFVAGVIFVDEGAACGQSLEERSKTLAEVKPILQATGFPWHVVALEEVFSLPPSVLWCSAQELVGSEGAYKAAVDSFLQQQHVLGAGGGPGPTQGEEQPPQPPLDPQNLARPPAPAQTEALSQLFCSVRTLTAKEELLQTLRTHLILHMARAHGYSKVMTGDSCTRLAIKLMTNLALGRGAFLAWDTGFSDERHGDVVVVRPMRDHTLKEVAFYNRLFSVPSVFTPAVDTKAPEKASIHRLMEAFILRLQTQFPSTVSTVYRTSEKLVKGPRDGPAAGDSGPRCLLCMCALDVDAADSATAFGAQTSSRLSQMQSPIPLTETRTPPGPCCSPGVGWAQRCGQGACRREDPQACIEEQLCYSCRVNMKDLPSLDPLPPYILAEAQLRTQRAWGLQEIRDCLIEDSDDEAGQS
UniProt P35222, whole entry, looked up: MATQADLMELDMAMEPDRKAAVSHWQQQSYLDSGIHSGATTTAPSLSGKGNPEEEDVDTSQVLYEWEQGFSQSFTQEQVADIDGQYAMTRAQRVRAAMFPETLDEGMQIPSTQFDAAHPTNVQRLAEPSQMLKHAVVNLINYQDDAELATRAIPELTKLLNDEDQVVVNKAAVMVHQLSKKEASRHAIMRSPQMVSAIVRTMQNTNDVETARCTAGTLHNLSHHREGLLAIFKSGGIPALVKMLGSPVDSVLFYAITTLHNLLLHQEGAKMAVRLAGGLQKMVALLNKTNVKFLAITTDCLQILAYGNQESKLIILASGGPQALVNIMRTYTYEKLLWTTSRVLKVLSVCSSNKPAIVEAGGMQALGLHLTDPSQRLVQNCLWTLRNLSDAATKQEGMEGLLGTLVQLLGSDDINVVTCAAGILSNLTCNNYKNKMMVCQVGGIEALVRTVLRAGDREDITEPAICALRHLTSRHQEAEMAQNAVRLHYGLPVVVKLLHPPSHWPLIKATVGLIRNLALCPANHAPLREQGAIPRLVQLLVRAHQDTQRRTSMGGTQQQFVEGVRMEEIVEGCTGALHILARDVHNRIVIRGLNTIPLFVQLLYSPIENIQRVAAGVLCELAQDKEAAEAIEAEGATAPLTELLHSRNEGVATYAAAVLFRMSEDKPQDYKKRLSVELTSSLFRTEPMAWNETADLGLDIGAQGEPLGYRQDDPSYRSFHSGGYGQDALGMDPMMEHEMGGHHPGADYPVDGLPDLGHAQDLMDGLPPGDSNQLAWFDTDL
UniProt P32929, whole entry, looked up: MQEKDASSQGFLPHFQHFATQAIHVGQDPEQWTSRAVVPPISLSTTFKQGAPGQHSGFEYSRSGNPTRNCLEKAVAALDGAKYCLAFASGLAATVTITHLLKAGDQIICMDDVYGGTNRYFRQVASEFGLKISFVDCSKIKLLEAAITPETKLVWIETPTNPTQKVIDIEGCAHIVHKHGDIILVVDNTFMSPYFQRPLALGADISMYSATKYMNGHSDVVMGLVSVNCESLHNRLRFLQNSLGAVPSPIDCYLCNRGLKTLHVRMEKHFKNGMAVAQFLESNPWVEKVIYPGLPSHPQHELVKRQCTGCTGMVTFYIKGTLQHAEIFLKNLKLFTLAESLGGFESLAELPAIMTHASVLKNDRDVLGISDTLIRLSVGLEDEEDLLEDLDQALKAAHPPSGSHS
UniProt P16220: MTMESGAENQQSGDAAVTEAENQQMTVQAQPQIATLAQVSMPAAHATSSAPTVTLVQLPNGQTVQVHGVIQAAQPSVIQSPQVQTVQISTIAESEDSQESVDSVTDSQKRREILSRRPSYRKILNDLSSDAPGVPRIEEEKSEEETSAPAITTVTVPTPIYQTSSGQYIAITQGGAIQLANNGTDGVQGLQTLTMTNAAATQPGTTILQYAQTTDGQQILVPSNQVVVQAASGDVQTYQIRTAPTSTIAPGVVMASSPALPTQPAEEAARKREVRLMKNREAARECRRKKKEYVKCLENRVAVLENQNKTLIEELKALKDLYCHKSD
UniProt Q6UXH1: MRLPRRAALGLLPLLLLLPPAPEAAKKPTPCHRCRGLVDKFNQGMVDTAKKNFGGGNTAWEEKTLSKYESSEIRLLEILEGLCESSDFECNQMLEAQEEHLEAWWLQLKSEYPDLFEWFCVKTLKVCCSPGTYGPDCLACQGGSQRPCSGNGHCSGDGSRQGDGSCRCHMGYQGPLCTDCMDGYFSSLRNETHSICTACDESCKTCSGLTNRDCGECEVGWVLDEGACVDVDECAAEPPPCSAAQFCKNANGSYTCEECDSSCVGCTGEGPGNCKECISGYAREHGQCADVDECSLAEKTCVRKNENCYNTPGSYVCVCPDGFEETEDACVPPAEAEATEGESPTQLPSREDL
UniProt Q96F07, whole entry, looked up: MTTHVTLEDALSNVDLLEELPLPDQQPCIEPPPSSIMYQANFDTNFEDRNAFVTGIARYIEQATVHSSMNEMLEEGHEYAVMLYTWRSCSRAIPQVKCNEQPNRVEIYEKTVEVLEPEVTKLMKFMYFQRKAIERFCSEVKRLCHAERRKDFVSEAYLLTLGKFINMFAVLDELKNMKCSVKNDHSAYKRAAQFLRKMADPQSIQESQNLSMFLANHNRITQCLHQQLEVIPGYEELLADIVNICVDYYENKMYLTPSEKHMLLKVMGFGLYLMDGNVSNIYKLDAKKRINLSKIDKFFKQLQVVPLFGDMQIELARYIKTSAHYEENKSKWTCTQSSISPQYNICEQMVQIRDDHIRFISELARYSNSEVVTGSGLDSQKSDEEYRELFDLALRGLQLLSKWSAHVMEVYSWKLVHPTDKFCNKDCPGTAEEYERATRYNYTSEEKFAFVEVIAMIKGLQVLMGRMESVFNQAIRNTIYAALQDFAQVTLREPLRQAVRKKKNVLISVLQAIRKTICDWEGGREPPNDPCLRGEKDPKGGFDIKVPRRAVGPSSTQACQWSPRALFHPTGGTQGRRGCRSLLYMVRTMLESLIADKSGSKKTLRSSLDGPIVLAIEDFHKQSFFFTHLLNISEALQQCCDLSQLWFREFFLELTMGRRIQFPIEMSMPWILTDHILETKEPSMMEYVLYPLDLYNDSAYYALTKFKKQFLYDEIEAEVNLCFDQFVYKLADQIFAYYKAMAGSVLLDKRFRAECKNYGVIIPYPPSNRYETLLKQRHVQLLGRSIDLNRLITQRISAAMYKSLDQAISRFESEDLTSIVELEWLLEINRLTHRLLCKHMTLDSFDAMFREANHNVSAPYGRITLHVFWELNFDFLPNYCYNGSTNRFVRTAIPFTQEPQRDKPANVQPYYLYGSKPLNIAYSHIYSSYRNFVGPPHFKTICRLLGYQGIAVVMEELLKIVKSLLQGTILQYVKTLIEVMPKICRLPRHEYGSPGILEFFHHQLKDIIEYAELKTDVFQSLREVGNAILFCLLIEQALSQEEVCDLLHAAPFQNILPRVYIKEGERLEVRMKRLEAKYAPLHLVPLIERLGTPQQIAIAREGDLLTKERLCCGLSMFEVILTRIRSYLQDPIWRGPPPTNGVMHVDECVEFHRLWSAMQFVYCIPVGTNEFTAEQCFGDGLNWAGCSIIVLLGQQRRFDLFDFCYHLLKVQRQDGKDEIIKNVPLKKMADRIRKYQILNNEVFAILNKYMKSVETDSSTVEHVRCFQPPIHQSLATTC
UniProt O75390: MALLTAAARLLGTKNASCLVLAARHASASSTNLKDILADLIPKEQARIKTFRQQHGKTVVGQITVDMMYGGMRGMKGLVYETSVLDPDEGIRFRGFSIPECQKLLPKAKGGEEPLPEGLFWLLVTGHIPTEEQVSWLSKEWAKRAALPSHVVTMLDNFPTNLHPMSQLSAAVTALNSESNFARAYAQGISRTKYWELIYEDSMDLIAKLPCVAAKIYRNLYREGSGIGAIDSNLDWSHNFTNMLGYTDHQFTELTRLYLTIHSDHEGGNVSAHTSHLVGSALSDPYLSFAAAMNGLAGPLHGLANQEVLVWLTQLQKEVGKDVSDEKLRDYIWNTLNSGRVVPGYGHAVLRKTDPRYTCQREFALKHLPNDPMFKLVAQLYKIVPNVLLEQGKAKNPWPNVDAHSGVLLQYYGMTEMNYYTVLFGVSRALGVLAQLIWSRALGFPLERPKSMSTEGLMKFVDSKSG
UniProt P49674: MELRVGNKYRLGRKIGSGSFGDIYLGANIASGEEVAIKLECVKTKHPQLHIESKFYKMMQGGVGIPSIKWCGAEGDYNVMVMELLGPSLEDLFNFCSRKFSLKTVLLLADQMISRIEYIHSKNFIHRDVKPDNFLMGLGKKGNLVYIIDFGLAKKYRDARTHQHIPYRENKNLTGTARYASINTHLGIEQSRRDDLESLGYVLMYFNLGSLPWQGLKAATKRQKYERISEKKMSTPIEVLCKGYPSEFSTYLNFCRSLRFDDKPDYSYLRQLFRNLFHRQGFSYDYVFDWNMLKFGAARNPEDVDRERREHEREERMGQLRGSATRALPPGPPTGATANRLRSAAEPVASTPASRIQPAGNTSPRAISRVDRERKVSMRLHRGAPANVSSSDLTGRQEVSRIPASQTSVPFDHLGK

Legend:
Assay in all cases: log2 fold change, soluble protein after heating vs DMSO (PISA); higher = thermal stabilisation; K562 lysate, 10 uM; active = over 0.2 and 3.5 SD of the protein, either way, in both replicates (recomputed)
[1] = compound: C1=CC=C(C=C1)[C@H](COC2=CC3=C(C=C2)NC(=O)N3)NC(=O)C4=CC=CN(C4=O)CC5=CC(=C(C=C5)F)F
How it was run: (§1)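 Values give the log-two fold change in thermal stability against solvent controls, from duplicates. Crude K562 extract at 1 mg/mL protein, made by dounce homogenisation in PBS pH 7.4 with 1 mM MgCl2, was treated with 10 μM compound for 30 min. After 3 min heating across 48°C-58°C, aliquots were pooled, adjusted to 0.5% NP-40 at 4°C and centrifuged at 21,000xg for 90 min. The supernatant was measured by TMTpro 16plex LC-MS/MS with channel sums equalised.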

[2] = compound: CC1=C(SC2=C1C(=N[C@H](C3=NN=C(N32)C)CC(=O)N)C4=CC=C(C=C4)Cl)C
How it was run: as §1

[3] = compound: CC1=C2C(=CC=C1)N=C(N(C2=O)C3=CC=CC=C3C)CN4C=NC5=C(N=CN=C54)N
How it was run: as §1

[4] = compound: Cc1sc2c(c1C)C(c1ccc(Cl)cc1)=N[C@@H](CC(=O)OC(C)(C)C)c1nnc(C)n1-2
How it was run: as §1

[5] = compound: c1ccc([C@@H]2C[C@H]2NC2CCNCC2)cc1
How it was run: as §1

Measured: log2 fold change

CTNS isoform 2 (UniProt O60931)
inactive: [1] -0.133 | [2] -0.205 | [3] -0.021 | [4] 0.184 | [5] -0.274

CTCF (UniProt P49711)
inactive: [1] 0.034 | [2] -0.033 | [3] 0.073 | [4] -0.047 | [5] 0.098

CTPS2 (UniProt Q9NRF8)
inactive: [1] -0.001 | [2] -0.009 | [3] -0.008 | [4] 0.004 | [5] 0

CTSZ (UniProt Q9UBR2)
inactive: [1] 0.026 | [2] -0.002 | [3] 0.019 | [4] -0.032 | [5] -0.016

CTBS (UniProt Q01459)
inactive: [1] -0.013 | [2] -0.003 | [3] 0.028 | [4] 0.092 | [5] 0.006

CREB3L2 (UniProt Q70SY1)
inactive: [1] -0.02 | [2] 0.015 | [3] 0.14 | [4] 0.062 | [5] -0.098

CTIF isoform 2 (UniProt O43310)
inactive: [1] 0.041 | [2] 0.023 | [3] 0.012 | [4] 0.081 | [5] -0.053

CWC22 (UniProt Q9HCG8)
inactive: [1] -0.033 | [2] 0.028 | [3] 0.034 | [4] 0.079 | [5] 0.237

CTU2 (UniProt Q2VPK5)
inactive: [1] 0.005 | [2] -0.012 | [3] -0.011 | [4] 0.042 | [5] 0.028

CTNNB1 (UniProt P35222)
inactive: [1] -0.073 | [2] 0.01 | [3] -0.101 | [4] -0.019 | [5] -0.012

CUL7 isoform 2 (UniProt Q14999)
inactive: [1] 0.003 | [2] -0.132 | [3] 0.014 | [4] 0.029 | [5] 0.065

CYBRD1 (UniProt Q53TN4)
inactive: [1] 0.011 | [2] -0.104 | [3] 0.217 | [4] -0.096 | [5] -0.042

CXorf40B (UniProt Q96DE9)
inactive: [1] -0.151 | [2] -0.183 | [3] 0.168 | [4] 0.017 | [5] 0.051

CTH (UniProt P32929)
inactive: [1] 0.037 | [2] 0.033 | [3] 0 | [4] -0.008 | [5] 0

CSPP1 (UniProt Q1MSJ5)
inactive: [1] -0.082 | [2] 0.001 | [3] 0.051 | [4] -0.008 | [5] -0.028

CREB1 (UniProt P16220)
inactive: [1] -0.019 | [2] -0.023 | [3] 0.011 | [4] 0.02 | [5] 0.082

CSNK1A1 (UniProt P48729)
inactive: [1] -0.027 | [2] 0.007 | [3] -0.033 | [4] 0.025 | [5] -0.044

CUSTOS (UniProt Q96C57)
inactive: [1] 0.035 | [2] -0.043 | [3] 0.01 | [4] 0.071 | [5] -0.008

CRELD2 isoform 5 (UniProt Q6UXH1)
inactive: [1] 0.336 | [2] 0.001 | [3] -0.032 | [4] -0.078 | [5] -0.021

CYFIP2 (UniProt Q96F07)
inactive: [1] -0.023 | [2] 0.002 | [3] 0.029 | [4] 0.003 | [5] -0.002

CTNNA2 (UniProt P26232)
inactive: [1] -0.001 | [2] 0.005 | [3] 0.012 | [4] -0.041 | [5] -0.116

CS (UniProt O75390)
inactive: [1] 0.003 | [2] 0.016 | [3] 0.033 | [4] 0.029 | [5] 0.03

CSNK1E (UniProt P49674)
inactive: [1] -0.004 | [2] -0.072 | [3] -0.031 | [4] 0.031 | [5] -0.005

CSDE1 isoform 4 (UniProt O75534)
inactive: [1] -0.012 | [2] -0.009 | [3] -0.017 | [4] 0.046 | [5] 0.04
